According to PubChem BioAssay AID1273 (Columbia University Molecular Screening Center, 2008):
The other results are listed elsewhere or left out. The main result of the screen is listed elsewhere. These columns were measured beside it and carry no call. The list favours compounds with an active or inconclusive main result.

experiment: insulin gene promoter suppression in islet cells – imaging, TRM-6 cells (human fetal islet line), eGFP reporter, cell count, primary screen (AID 1273;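 note: cells exposed to compound for 48 h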); settings: measured here: cell count, toxicity, at 2 µM, reporter expression induced with tamoxifen

Structure (SMILES) | normalized cell count
NC(=O)COC(=O)CCCc1c[nH]c2ccccc12 | 142%
CC1CCN(Cc2nc3c(c(=O)n(C)c(=O)n3C)n2Cc2c(F)cccc2Cl)CC1 | 87.4%
Cc1ccc(-c2csc(C(C#N)=C3CCCC3)n2)cc1 | 47.1%
CCOCCCn1c(C)nc2c(c1=O)c1nc3ccccc3nc1n2-c1ccc(C)cc1 | 189%
c1cc2c3c(cccc3c1)C(N1CCCCC1)=N2 | 75.8%
Cc1ccc(NC(=O)C2CCCN(S(=O)(=O)c3ccc4c(c3)oc(=O)n4C)C2)nc1 (stereo not drawn) | 20.9%
CCCNc1nc(N2CCCC2)nc(N2CCCC2)n1 | 108%
Cn1c(NCc2cccc(Br)c2)nc2ccccc21 | 134%
CCOC(=O)c1c(C)cc(C)n2c1nc1ccccc12 | 322%
Cc1ccc(-n2sc3ccccc3c2=O)cc1S(=O)(=O)N1CCCCC1 | 36.9%
CC(=O)CCc1c(C)c2cc(C)ccc2[nH]c1=O | 25.4%
CC1CN(Cc2nc3c(c(=O)n(C)c(=O)n3C)n2CCc2ccccc2)CC(C)O1 (stereo not drawn) | 16.9%
CCOC(=O)c1c2n(c3ccc(O)cc13)CCCCC2 | 145%
C/C(=N\N1CCN(C)CC1)c1ccc(OC(F)F)cc1 | 86.4%
CCOC(=O)N1CCN(C(=S)NC)CC1 | 33.3%
O=C(C1CN(S(=O)(=O)c2ccccc2)CCN1S(=O)(=O)c1ccccc1)N1CCCCCC1 (stereo not drawn) | 41.3%
Cc1ccc(S(=O)(=O)NNC(=O)c2cnn(-c3ccccc3)c2-n2cccc2)cc1 | 85.9%
Cc1ccc2c(C)nc(/N=C(\N)NC(=O)N3c4ccccc4Sc4ccccc43)nc2c1 | 120%
CC(NC(=O)C1CCCC1)C1CC2CCC1C2 (stereo not drawn) | 110%
COc1ccc(CC(=O)NNC(=O)CSc2nnc(Cc3ccc(OC)cc3)n2-c2ccccc2)cc1 | 83.1%
Nc1ccc2nc(SCc3cccc(F)c3)sc2c1 | 147%
Cc1cccc(N2CCN(C(=O)C(C)C)CC2)c1C | 142%
Cc1ccc(NCc2cccnc2)c(Br)c1 | 63.9%
Cc1ccc(/C=C/C(=O)Nc2cc(C)on2)cc1 | 71.4%

Exported as labelled records: entries from further up
CCOC(=O)N1CCN(C(=S)NC)CC1
  normalized cell count: 33.3%
O=C(C1CN(S(=O)(=O)c2ccccc2)CCN1S(=O)(=O)c1ccccc1)N1CCCCCC1 (stereo not drawn)
  normalized cell count: 41.3%

Going on with the list:

Structure (SMILES) | normalized cell count
CCCCc1nc2ccccc2[nH]1 | 143%
COc1ccc2c(CCNC(=O)c3ccco3)c[nH]c2c1 | 74.9%
Fc1ccccc1CSc1nc2ccccc2[nH]1 | 129%
COc1ccccc1NC(=O)Nc1c(C)n(C)n(-c2ccccc2)c1=O | 17.3%
O=C(O)C12CC3CC(C1)CC(n1cnc(Cl)n1)(C3)C2 | 2.04%
Cc1c(Cl)c(C(F)(F)F)nn1CC(=O)N1CCSCC1 | 4.55%
COc1ccc(C(=O)Nc2ccc3c4c(cccc24)CC3)cc1 | 0.94%
Cc1ccccc1NC(=O)CSc1nnc(Cc2ccccc2)o1 | 166%
O=c1c(-n2cncn2)c[nH]n1-c1cccc(Cl)n1 | 44.4%
Cc1cc(C(=O)CCl)c(C)n1-c1ccon1 | 103%
COc1ccc(N2CC(C(=O)NCCC3=CCCCC3)CC2=O)cc1 (stereo not drawn) | 82.5%
COc1ccccc1NC(=O)/C=C\C(=O)O | 38.1%
CNS(=O)(=O)c1cccc(C(=O)NCC(c2cccs2)N(C)C)c1 (stereo not drawn) | 98.4%
CCOC(=O)c1c(NC(C)=O)sc2c(O)c(CN3CCN(CC)CC3)ccc12 | 89.4%
Cc1ccc(/C=c2\sc3nc(-c4ccco4)nn3c2=O)o1 | 104%
Cc1ccc(C(=O)OC(C)CN2CCOCC2)cc1 (stereo not drawn) | 128%
FC(F)(F)c1ccc2c(c1)nc1n2CCCC1 | 131%
CCCCCCN=CC1=C(O)C(C(=O)OC)C(C)(C)CC1=O (stereo not drawn) | 62.7%
C=CCc1c(C)nc(SC(C)C)[nH]c1=O | 31%
Cc1ccc(NC2=NC(c3ccccc3)n3c(nc(C)cc3=O)N2)cc1 (stereo not drawn) | 110%
Cc1nn2c(C(F)(F)F)cc(-c3ccc(Cl)cc3)nc2c1C(=O)N1CCOCC1 | 71.8%
C[C@@H]1CC[C@@]2(O[C@H](CCO)C[C@@H](O)[C@@H]2O)O1 | 92.5%
CCOC(=O)c1sc(NC(=O)c2ccccc2F)c(C(N)=O)c1C | 187%
CC1(C)CC(NC(=O)CC2CCCCC2)CC(C)(C)N1 | 117%

Structure (SMILES) | normalized cell count
CCOC(=O)CCc1c(C)nc2cc(-c3ccccc3OC)[nH]n2c1=O | 64.5%
CCOC(=O)CC(=O)CSc1ncnc2c1cnn2-c1ccccc1 | 0.86%
CCOC(=O)Cc1csc(NC(=O)CSc2nc(N)c3c(C)c(C)sc3n2)n1 | 20.6%
Cc1ccc(NC(=O)CN(C)S(=O)(=O)c2cccs2)cc1F | 64.6%
CC(C)(C)NC(=O)c1cccc(NC(=O)c2ccc(NC(=O)c3ccco3)cc2)c1 | 137%
CCOc1cc(C)c(C(C)C)cc1S(=O)(=O)n1ccc(C)n1 | 145%
CCOC(=O)C1CCCN(c2c(N3CCN(c4ccccn4)CC3)c(=O)c2=O)C1 (stereo not drawn) | 56.7%
O=C(NC1CCCC1)C1c2ccccc2C(=O)N1CCCN1CCOCC1 (stereo not drawn) | 114%
CCCc1nc2ccccc2n2cc3c(=O)n(C)c(=O)n(C)c3c12 | 101%
COc1ccc(NC(=O)CSc2ccc(-c3cccs3)nn2)c(OC)c1 | 181%
COc1ccc2[nH]c3c(NCCN4CCCCC4)ncnc3c2c1 | 39.8%
C=CCn1c(SCc2csc(C)n2)nc2sc3c(c2c1=O)CCCC3 | 74.6%
Cc1cccc(C(C)(C)C)c1OCCn1ccnc1 | 40.7%
CCCc1cc(C(F)(F)F)c(C#N)c(=O)[nH]1 | 59.9%
CCOc1ccccc1NC(=O)c1cc(S(=O)(=O)N2CCC3(CC2)OCCO3)ccc1F | 87.2%
CCOC(=O)c1sc2nc(C)[nH]c(=S)c2c1C | 123%
COc1cccc(C(=O)Nn2cnnc2)c1 | 167%
CCc1cccc(C)c1NC(=S)NCc1ccc2[nH]c(C)cc2c1 | 85%
CC(C)(C)NC(=O)C(c1ccco1)N(C(=O)c1ccc(CN2CCOCC2)o1)c1ccccc1 (stereo not drawn) | 127%
COc1ccc(C(=O)Nc2c(N)nc(SCC(=O)N3CCCCCC3)[nH]c2=O)cc1OC | 179%
O=C(Nc1cc(Cl)cc(Cl)c1)c1ccc(Cn2c(=O)[nH]c3ccsc3c2=O)cc1 | 119%
CCCCCCCCCOC(=O)C(CC(=O)O)N1CCOCC1 (stereo not drawn) | 36.2%
O=C(Cn1nnc(-c2cccs2)n1)N1c2ccccc2Sc2ccc(C(F)(F)F)cc21 | 179%
CCCc1cc(NCCCCO)n2c(nc3ccccc32)c1C#N | 43.7%

Structure (SMILES) | normalized cell count
Cc1ccc2c(Cl)c(C)c(N3CCCCC3)nc2n1 | 121%
CCN(CC)c1nc(OCCNC(=O)Nc2ccccc2)nc(N(CC)CC)n1 | 17.1%
Cc1ccc(S(=O)(=O)N(C)C)cc1NC(=O)COC(=O)/C(=C/c1ccc(F)cc1)c1cccs1 | 106%
COCCNC(=O)c1cc(-c2ccc(Cl)c(Cl)c2)on1 | 97.1%
O=c1[nH]c(-c2cccs2)nc2ccccc12 | 210%
Cc1cc(N)n2ncc(-c3cccc(Br)c3)c2n1 | 204%
Fc1ccc(/C=N/Nc2ncnc3nc[nH]c23)cc1F | 105%
O=C(NCc1ccco1)C1CCC(N2C(=O)c3ccccc3C2=O)CC1 (stereo not drawn) | 130%
Cc1ccc(NC(=S)c2nc3ccccc3[nH]2)cc1 | 133%
O=C(N/N=C/C=C/c1ccco1)c1cccnc1 | 10.2%
Cc1cccc(-c2nnc(N)s2)c1 | 38.8%
O=C(Nc1ccc2nc(-c3ccco3)[nH]c2c1)c1ccco1 | 102%
Cc1ccc(NC(=O)CNc2ccc(OC(C)C)cc2)c(C)c1 | 96.4%
CCOc1ccc(-n2ccnc2SCC(=O)Nc2nnc(CC)s2)cc1 | 113%
O=C1COc2ccc(C(=O)CSc3nnc(Cc4cccs4)n3-c3ccccc3)cc2N1 | 65.8%
COC(=O)/C(=C/N(C)C)C(=O)N1CCN(c2ccc(Cl)c(Cl)c2)CC1 | 76.2%
CC(C)(CSc1nncn1N)NS(=O)(=O)c1ccc(Cl)cc1 | 56.7%
CCN(CC)c1ccc(/C=N/NC(=S)NCc2ccco2)cc1 | 0.41%
Cc1cc(N)n2ncc(-c3ccccc3)c2n1 | 147%
Cc1cc(C)cc(OCCCC(=O)O)c1 | 97.3%
Cc1nc(NC(=O)C2CC2)sc1C(=O)N(C)C | 125%
CC(=O)Nc1ccc(NC(=O)C(Cc2ccccc2)NC(=O)C2CCCCC2)cc1 (stereo not drawn) | 69.4%
O=C(NC1CCCCC1)C(c1ccncc1)N(CC1CCCO1)C(=O)C(F)(F)F (stereo not drawn) | 113%
COc1cccc2c1OC1(C)CC2/C(=C(\C)O)C(=O)N1 (stereo not drawn) | 77.6%

A run of entries taken from the entries so far:
Structure (SMILES) | normalized cell count
Cc1cccc(C(C)(C)C)c1OCCn1ccnc1 | 40.7%
CCCc1cc(C(F)(F)F)c(C#N)c(=O)[nH]1 | 59.9%
CCOc1ccccc1NC(=O)c1cc(S(=O)(=O)N2CCC3(CC2)OCCO3)ccc1F | 87.2%
CCOC(=O)c1sc2nc(C)[nH]c(=S)c2c1C | 123%
COc1cccc(C(=O)Nn2cnnc2)c1 | 167%
CCc1cccc(C)c1NC(=S)NCc1ccc2[nH]c(C)cc2c1 | 85%
CC(C)(C)NC(=O)C(c1ccco1)N(C(=O)c1ccc(CN2CCOCC2)o1)c1ccccc1 (stereo not drawn) | 127%

(cont.)

Structure (SMILES) | normalized cell count
CCN(C=NC1=NN(c2cccc(C(F)(F)F)c2)CC1)CC | 91.5%
CC(=O)Nc1c(C(=O)c2ccccc2)oc2ccccc12 | 34.8%
CCCCCn1c(=O)[nH]c2cc(C(=O)NCc3ccccn3)ccc2c1=O | 86%
CC(=O)c1c(C)nc2ccccc2c1N | 93.6%
CCc1nc(NC(C)C)c2oc3ccccc3c2n1 | 136%
COc1ccc(-n2nnnc2SCC(=O)c2ccc3c(c2)OCCO3)cc1 | 63.2%
CC(/C=N/NC(=O)Cc1cccn1C)=C\c1ccccc1 | 93.2%
O=C(CN1C(=O)S/C(=C/c2cccnc2)C1=O)N1CCOCC1 | 71%
CNC(=S)N(CCc1ccccc1)Cc1cc2cc(OC)c(OC)cc2[nH]c1=O | 98.4%
COc1ccc2nc(C)cc(N3CC(C)OC(C)C3)c2c1 (stereo not drawn) | 79.8%
CCOc1cc(-n2nc(C)c(C#N)c2N)nc(SC)n1 | 75%
CCOC(=O)c1c(NC(=O)COC)sc(C)c1C | 85%
Cc1nc2ccccc2n1CC(O)COc1ccccc1Cl (stereo not drawn) | 195%
Cn1cc(-c2nc3ccccc3[nH]2)c2ccccc21 | 16.2%
COc1ccc(Cl)cc1-c1nc(-c2ccncc2)no1 | 69.8%
CCCc1nccn1S(=O)(=O)c1cc(OC)ccc1OC | 35.2%
O=C(/C=C/c1ccc2c(c1)OCO2)Nc1ccc(Cl)cn1 | 22.3%
Cc1cccc(OCC(=O)NCCN2CCOCC2)c1 | 154%
Cn1c(=O)c2[nH]c(-c3ccccc3Cl)c(O)c2n(C)c1=O | 86.3%
Cc1ccc(/C=N/Nc2ccc3c(C(F)(F)F)cc(C(F)(F)F)nc3n2)cc1 | 51%
COc1ccc(-c2nc(SC)n(C(=O)c3ccco3)n2)cc1 | 115%
COc1cccc(-c2nc(-c3ccc(NC(=O)c4ccncc4)cc3)no2)c1 | 100%
